{"source": "patent US11446359B2", "about": "“Systems and methods for cardiac plexus neuromodulation” (Tulavi Therapeutics, Inc., priority 2015, dated 2022)", "assay": "Reserpine release from chondroitin sulfate / 6-arm PEG amine hydrogel (Example 2)"}
{"molecule": "COC(=O)[C@H]1[C@H]2C[C@@H]3c4[nH]c5cc(OC)ccc5c4CCN3C[C@H]2C[C@@H](OC(=O)c2cc(OC)c(OC)c(OC)c2)[C@@H]1OC", "note": "[reserpine]", "values": [{"measurement": "initial burst of the drug loading", "setting": "NHS-ester activated chondroitin sulfate crosslinked with 6-arm PEG amine", "value": 15, "unit": "%"}, {"measurement": "release from the hydrogel", "setting": "after initial burst", "value": "20-50 μg per day"}]}
